Measurements reported in PubChem BioAssay AID1508600 (Functional Genomics Laboratory (NCATS/FGL), 2020).
The campaign covered roughly 53,000 sequences. About 3,700 (7%) were called active.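 How the source made its calls: active means gene knockdowns whose robust z-score for IL-1 alpha signal is at least 2 or at most -2, so actives lie on both sides; inactive means the rest.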 The list shows a part of the results.

assay: Components of the Cytosolic LPS Sensing Pathway: Gene Identification via Genome-wide siRNA Screen; settings: RAW264.7 macrophages, IL-1a HTRF, actives lie on both sides, screened at 100 nM (by protocol), cells primed 5 h with Pam3CSK4 first;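 further: robust z of the log signal after scaling to non-targeting control siRNA wells of the plate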
In short: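 Read-out: IL-1a HTRF on supernatant, divided by plate negative-control median ×100, log-transformed and converted to robust z-score. Cells were RAW264.7 given 100 nM siRNA, Pam3CSK4-primed 5 hours, then LipidA-transfected 24 hour.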

Which z-score does the source give for GCGCCUUAACCAAGAAGUUTT against Cox18 here?
The z-score was active: 2.84.

Which z-score does the source give for GGAGGCUUCAUUCUGCUUUTT against Rab11fip5 here?
The z-score was inactive: 0.401.

Which z-score does the source give for GGAGCUGAUCCUUAACUUATT against Adam1b here?
Its z-score is inactive: 0.526.

For CGUGAUUCUAGUAAGAGAGTT against Mbd1, which z-score is on record?
The z-score was inactive: -0.863.

With CCGAUGAUGAGAUUAAUAUTT against Ophn1 as the sequence, how does the z-score read?
Its z-score is inactive: -1.16.

For GGCCAUUAACAUCACCAACTT against Csnk2a2, which z-score is on record?
The z-score was inactive: -0.0869.

Which z-score does the source give for GGUUGUCACCCUGACGGAATT against Cox4i2 here?
The z-score was inactive: -1.19.

With GGGUGGACUCAGUGCUUCUTT against Hoxd3 as the sequence, how does the z-score read?
The z-score was inactive: -0.593.

Which z-score does the source give for “GGUUGUGUUUUCAAGAAUUTT against 4921507P07Rik” here?
Its z-score is inactive: 0.27.

For GGCUAGUCACCUUUGUAGCTT against Mmrn2, which z-score is on record?
Its z-score is inactive: 0.356.

With CCUUAAUUGGGUUGAAUUCTT against Olfr878 as the sequence, how does the z-score read?
The z-score was active: 2.44.

Which z-score does the source give for GGUCCUAUCUUCCUAUCAUTT against Smtnl2 here?
The z-score was inactive: 0.783.

Which z-score does the source give for GCACCUCUCCAUGUACAAGTT against Iba57 here?
The z-score was inactive: 0.938.

Which z-score does the source give for GGAACAGGAAGAAAGAAAATT against Ube2e3 here?
The z-score was inactive: -0.267.

For CGUGCUGUUGUGUAAUUUCTT against Wdr37, which z-score is on record?
Its z-score is inactive: 1.13.

For GGAAUGUCGAAGAAAAUGCTT against Adam15, which z-score is on record?
Its z-score is inactive: -0.197.

Which z-score does the source give for GGAAACCACAUAGAAUAAUTT against Rtp1 here?
Its z-score is inactive: 0.845.

Which z-score does the source give for CAAUACAUUGAUAGCAAAUTT against Vmn1r206 here?
The z-score was inactive: -0.123.

For GGCUCUUUGCGAAAAUGGATT against Rnaseh2a, which z-score is on record?
The z-score was inactive: -0.889.

With GGAUCAGAUGAUAAACCAUTT against Ttll3 as the sequence, how does the z-score read?
The z-score was inactive: 0.109.

For UAGUCACAAGGUUUGAAACTT against Fbxw24, which z-score is on record?
The z-score was inactive: -0.822.

With GGGAAAACCCUUUAUUCAGTT against Tmod4 as the sequence, how does the z-score read?
The z-score was inactive: 0.869.

For GGGAUUUCAUCUUUGAAAGTT against Uqcrq, which z-score is on record?
Its z-score is inactive: 0.114.

With GGUAUAGAACUGAAGAAGUTT against Dnajc28 as the sequence, how does the z-score read?
Its z-score is inactive: -0.199.

Which z-score does the source give for GGAAGCCUAGUUUUUUUAATT against Csnk2a1 here?
The z-score was active: 2.89.

For “CCUGACUUGCCAUGUAAACTT against F830045P16Rik”, which z-score is on record?
The z-score was inactive: 0.703.

With GGGCCUAAGAAGCAUUACUTT against Ndufb11 as the sequence, how does the z-score read?
Its z-score is inactive: 0.0545.

Which z-score does the source give for CCGUACCUACAAGUUCACUTT against Fndc11 here?
The z-score was inactive: 0.302.

For CGGUCUAUGAAAGUUAUUCTT against Mcm9, which z-score is on record?
The z-score was inactive: 0.19.

With GGUGCAUAUGAGGUAUAUUTT against Nt5e as the sequence, how does the z-score read?
Its z-score is inactive: 0.729.

For CCACUCAAGAUCGAUACCUTT against Fgd1, which z-score is on record?
The z-score was inactive: 0.167.

With GGAUAUUCCCAAGUCUUUATT against Cyp2e1 as the sequence, how does the z-score read?
The z-score was inactive: 0.423.

For GCUGAAGUUCGUACCCUACTT against Osbp2, which z-score is on record?
Its z-score is active: -2.42.

For GCGGUUAGCACAAUGUGAATT against Ppp2cb, which z-score is on record?
The z-score was inactive: -0.577.

With GGAAGAAUUAAUGAAUACCTT against Ncoa1 as the sequence, how does the z-score read?
The z-score was inactive: 1.36.

With GGACAUUUCUGACAAAAAGTT against Cab39 as the sequence, how does the z-score read?
The z-score was inactive: -1.18.

Which z-score does the source give for GGAUAAGAAAACUGAAGAATT against Tex16 here?
Its z-score is inactive: 1.4.

Which z-score does the source give for GCUCUACGAAAAGAAAAUCTT against Emd here?
Its z-score is inactive: -0.987.

With GGCAGUUGAAUUGUUUGAGTT against Dact1 as the sequence, how does the z-score read?
Its z-score is inactive: -0.91.

For GGAGUGUGGAAUUUAAUACTT against Cstf2t, which z-score is on record?
Its z-score is inactive: -0.563.

Which z-score does the source give for GGUACAAAGUGAAAUAGCUTT against Rnf34 here?
The z-score was inactive: 0.391.

For GGUUGGACAGAAACAUCAGTT against Rab29, which z-score is on record?
Its z-score is inactive: 0.399.

For GCAACAUAUCGGCAGAUGATT against Cpsf3, which z-score is on record?
The z-score was inactive: 0.486.

For CCUAUUCUUAACACCCUUGTT against Tfr2, which z-score is on record?
The z-score was inactive: 0.891.

With GGAGAUGUUUACAUGUAUUTT against Mboat1 as the sequence, how does the z-score read?
The z-score was inactive: 0.766.

Which z-score does the source give for CCUGCUCAUCAUUCUUCUCTT against Olfr50 here?
The z-score was inactive: -0.848.

Which z-score does the source give for GGGUUUUCAAAGACAAGAUTT against Frmd6 here?
The z-score was inactive: 1.47.

With GGACCCUGCUUUCUCUGCUTT against Kif26b as the sequence, how does the z-score read?
The z-score was inactive: -0.791.

With CCAUGGUUGCCAUAUAUUUTT against Pex19 as the sequence, how does the z-score read?
The z-score was inactive: -0.11.

With CCAAUCAUGGACUUUAUAATT against Hormad1 as the sequence, how does the z-score read?
The z-score was inactive: -0.362.

For CCACGGAGAUGAAAUGCCUTT against Uck2, which z-score is on record?
Its z-score is inactive: -0.831.

Which z-score does the source give for GGGACUUCAGACAGUUAUCTT against Ess2 here?
The z-score was inactive: 1.69.

Which z-score does the source give for GCUGUUCUAAAUCCAAACCTT against Setx here?
Its z-score is inactive: -0.645.

For CCUCCUUCACCAACUUAAATT against Rab33a, which z-score is on record?
The z-score was inactive: -0.248.

With GGAGAGAACAUUAAAGAUATT against Mtmr2 as the sequence, how does the z-score read?
The z-score was inactive: -0.36.

For GGAGAAUAUUCUCUGUGGATT against Rab11fip5, which z-score is on record?
The z-score was active: -2.71.

With GCUAUUUGCACUGAAAUAGTT against Pld5 as the sequence, how does the z-score read?
The z-score was inactive: 0.0253.

For GCUCUAAAGAGUCCCAAGATT against Nkap, which z-score is on record?
Its z-score is inactive: -0.161.

For GGAUCCGUGCUGAAGUUUUTT against Cep20, which z-score is on record?
The z-score was inactive: -0.338.

With CGCAAGAGUUCCUUUUUUUTT against Sla as the sequence, how does the z-score read?
The z-score was inactive: 0.671.

With GCUUACUCCAGCAUAUUUCTT against Qdpr as the sequence, how does the z-score read?
Its z-score is inactive: -0.437.

Which z-score does the source give for GCUUCCUUCUUCUUGUCCATT against Vmn1r42 here?
Its z-score is inactive: -0.475.

Which z-score does the source give for GCAUCUACCUAUAAUGAAUTT against Gpatch2l here?
The z-score was inactive: -0.174.

For GGAGUAGCUGAUCAAACCATT against Slc25a12, which z-score is on record?
The z-score was inactive: -1.8.

For GGCUCCUAACUCACUGGGATT against Ormdl1, which z-score is on record?
Its z-score is inactive: 0.0548.

Which z-score does the source give for GGGCCAAAAUGGUUCCAGCTT against Cyp4b1 here?
Its z-score is inactive: 0.485.

Which z-score does the source give for CGAAGGACAAAAUAUCAGCTT against Ccdc7a here?
The z-score was inactive: 0.531.

Which z-score does the source give for GGAGAAGAAAGCAAAAACCTT against Ing1 here?
Its z-score is active: -2.11.
